These are yes or no findings as the source states them, for the method shown. Binding seen in cells or lysates may run through a third protein. Here binding means that the protein was enriched with, or labelled near, the bait; the list need not be complete.
How the values were obtained:
[1] = biological target: MTA2 (human) (human (endogenous in HeLa)) (UniProt O94776); experiment: affinity purification with mass spectrometry; anti-MTA2 IP from pooled fractions 6-8 (high-molecular-weight fractions) of the preparative sucrose gradient of HeLa cytosolic extract; protein A Dynabeads, washed with PBS pH 7.4, 0.02% Tween 20
[2] = biological target: MTA2 (human) (human (endogenous in HeLa)) (UniProt O94776); experiment: affinity purification with mass spectrometry; anti-MTA2 IP from pooled fractions 6-8 of the preparative sucrose gradient of HeLa nuclear extract; protein A Dynabeads, washed with PBS pH 7.4, 0.02% Tween 20
[3] = biological target: MTA2 (Xenopus laevis) (Xenopus laevis (endogenous in eggs and embryos)); experiment: affinity purification with mass spectrometry; anti-MTA2 IP from partially fractionated post-MBT (stage 18) Xenopus laevis embryo extract; protein A Dynabeads, washed with PBS pH 7.4, 0.02% Tween 20
[4] = biological target: MTA2 (Xenopus laevis) (Xenopus laevis (endogenous in eggs and embryos)); experiment: affinity purification with mass spectrometry; anti-MTA2 IP from partially fractionated pre-MBT (stage 6) Xenopus laevis embryo extract; protein A Dynabeads, washed with PBS pH 7.4, 0.02% Tween 20
[5] = biological target: MTA2 (Xenopus laevis) (Xenopus laevis (endogenous in eggs and embryos)); experiment: affinity purification with mass spectrometry; rabbit anti-MTA2 (ab8106) and protein A Dynabeads; fractionated activated Xenopus laevis egg extract; beads washed with PBS pH 7.4, 0.02% Tween 20; proteins found only in the MTA2 IP and not in the control IP

By UniProt entry, the sequences of proteins in these tests, tags left out.
UniProt O94776: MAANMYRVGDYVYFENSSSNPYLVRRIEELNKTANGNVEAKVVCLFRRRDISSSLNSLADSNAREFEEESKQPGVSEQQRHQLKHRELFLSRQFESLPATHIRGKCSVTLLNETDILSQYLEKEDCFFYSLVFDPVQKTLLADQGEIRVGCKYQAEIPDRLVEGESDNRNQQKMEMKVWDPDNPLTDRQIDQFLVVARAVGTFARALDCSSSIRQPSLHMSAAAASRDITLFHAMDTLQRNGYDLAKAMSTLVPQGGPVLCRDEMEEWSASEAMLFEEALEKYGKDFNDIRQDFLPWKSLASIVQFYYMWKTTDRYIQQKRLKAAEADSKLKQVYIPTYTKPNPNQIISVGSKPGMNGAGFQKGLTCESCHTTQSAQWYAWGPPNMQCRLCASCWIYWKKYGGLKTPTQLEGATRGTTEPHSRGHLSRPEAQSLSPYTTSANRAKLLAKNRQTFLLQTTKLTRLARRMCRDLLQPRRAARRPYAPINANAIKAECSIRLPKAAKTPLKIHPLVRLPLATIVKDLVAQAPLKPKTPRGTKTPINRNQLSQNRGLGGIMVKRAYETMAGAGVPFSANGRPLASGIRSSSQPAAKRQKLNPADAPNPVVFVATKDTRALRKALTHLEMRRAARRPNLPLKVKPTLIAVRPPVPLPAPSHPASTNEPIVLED
UniProt Q92769: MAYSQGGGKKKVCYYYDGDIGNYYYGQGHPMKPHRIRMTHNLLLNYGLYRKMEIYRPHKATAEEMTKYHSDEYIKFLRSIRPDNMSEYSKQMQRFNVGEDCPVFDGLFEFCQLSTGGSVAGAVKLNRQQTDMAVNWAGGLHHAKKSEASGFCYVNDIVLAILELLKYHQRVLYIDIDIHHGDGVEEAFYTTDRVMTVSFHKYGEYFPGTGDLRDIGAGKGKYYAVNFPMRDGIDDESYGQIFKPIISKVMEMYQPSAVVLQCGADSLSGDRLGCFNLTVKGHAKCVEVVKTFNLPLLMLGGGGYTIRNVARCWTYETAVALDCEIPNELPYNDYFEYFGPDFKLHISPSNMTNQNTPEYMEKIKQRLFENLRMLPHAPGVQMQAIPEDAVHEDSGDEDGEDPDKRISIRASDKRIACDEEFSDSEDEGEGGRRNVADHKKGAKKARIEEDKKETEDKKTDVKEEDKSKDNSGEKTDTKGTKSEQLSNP
UniProt Q12873: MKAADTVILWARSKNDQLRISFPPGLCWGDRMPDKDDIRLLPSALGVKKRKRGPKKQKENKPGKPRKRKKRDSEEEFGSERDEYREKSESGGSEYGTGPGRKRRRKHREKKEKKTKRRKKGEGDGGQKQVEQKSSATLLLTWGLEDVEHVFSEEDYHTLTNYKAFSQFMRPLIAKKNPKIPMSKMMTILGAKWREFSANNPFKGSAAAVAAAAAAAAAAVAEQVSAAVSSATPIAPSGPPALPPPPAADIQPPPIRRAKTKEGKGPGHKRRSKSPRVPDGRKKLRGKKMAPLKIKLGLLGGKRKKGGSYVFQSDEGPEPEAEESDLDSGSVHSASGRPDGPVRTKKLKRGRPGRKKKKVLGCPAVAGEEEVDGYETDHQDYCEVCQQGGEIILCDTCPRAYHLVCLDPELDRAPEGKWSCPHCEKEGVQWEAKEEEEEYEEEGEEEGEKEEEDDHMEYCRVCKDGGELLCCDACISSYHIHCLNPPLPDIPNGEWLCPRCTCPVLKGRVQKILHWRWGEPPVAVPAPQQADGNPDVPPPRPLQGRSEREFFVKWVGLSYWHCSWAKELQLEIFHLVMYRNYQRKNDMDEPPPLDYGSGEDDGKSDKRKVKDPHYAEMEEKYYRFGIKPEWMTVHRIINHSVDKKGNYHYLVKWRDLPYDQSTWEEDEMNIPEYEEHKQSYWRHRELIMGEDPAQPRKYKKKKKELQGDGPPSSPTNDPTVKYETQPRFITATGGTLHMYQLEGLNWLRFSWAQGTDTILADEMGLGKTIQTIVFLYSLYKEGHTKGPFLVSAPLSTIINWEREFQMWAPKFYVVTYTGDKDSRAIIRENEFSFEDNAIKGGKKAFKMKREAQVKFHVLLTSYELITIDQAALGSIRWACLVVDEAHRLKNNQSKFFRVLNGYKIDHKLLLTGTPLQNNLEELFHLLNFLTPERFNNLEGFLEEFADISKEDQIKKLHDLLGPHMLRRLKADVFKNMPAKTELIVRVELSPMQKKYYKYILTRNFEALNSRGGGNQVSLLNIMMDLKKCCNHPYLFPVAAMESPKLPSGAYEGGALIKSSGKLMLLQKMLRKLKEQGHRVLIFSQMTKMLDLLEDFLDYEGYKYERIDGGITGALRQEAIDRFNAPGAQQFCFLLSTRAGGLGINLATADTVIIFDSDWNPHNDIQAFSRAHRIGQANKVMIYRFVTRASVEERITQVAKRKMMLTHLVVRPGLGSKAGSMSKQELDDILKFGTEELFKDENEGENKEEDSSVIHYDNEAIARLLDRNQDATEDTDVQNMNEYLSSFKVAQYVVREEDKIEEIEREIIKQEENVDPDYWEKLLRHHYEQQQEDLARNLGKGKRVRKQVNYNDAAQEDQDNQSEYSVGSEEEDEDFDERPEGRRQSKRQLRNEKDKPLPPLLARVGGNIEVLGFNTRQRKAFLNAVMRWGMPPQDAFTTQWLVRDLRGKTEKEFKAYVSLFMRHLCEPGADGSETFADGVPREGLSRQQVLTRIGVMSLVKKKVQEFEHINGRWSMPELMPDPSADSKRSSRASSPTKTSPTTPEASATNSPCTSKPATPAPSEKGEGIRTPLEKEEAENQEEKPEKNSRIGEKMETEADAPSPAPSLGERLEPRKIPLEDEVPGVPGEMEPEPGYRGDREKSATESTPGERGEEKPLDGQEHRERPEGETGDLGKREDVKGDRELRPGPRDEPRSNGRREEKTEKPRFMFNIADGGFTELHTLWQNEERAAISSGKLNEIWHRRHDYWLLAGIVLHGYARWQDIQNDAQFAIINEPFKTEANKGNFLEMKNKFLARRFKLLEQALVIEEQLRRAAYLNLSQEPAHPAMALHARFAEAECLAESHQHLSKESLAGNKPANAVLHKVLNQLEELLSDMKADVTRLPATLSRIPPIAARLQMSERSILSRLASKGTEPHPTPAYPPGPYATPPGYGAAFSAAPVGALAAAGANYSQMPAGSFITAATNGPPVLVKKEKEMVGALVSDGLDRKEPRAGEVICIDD
UniProt Q14839: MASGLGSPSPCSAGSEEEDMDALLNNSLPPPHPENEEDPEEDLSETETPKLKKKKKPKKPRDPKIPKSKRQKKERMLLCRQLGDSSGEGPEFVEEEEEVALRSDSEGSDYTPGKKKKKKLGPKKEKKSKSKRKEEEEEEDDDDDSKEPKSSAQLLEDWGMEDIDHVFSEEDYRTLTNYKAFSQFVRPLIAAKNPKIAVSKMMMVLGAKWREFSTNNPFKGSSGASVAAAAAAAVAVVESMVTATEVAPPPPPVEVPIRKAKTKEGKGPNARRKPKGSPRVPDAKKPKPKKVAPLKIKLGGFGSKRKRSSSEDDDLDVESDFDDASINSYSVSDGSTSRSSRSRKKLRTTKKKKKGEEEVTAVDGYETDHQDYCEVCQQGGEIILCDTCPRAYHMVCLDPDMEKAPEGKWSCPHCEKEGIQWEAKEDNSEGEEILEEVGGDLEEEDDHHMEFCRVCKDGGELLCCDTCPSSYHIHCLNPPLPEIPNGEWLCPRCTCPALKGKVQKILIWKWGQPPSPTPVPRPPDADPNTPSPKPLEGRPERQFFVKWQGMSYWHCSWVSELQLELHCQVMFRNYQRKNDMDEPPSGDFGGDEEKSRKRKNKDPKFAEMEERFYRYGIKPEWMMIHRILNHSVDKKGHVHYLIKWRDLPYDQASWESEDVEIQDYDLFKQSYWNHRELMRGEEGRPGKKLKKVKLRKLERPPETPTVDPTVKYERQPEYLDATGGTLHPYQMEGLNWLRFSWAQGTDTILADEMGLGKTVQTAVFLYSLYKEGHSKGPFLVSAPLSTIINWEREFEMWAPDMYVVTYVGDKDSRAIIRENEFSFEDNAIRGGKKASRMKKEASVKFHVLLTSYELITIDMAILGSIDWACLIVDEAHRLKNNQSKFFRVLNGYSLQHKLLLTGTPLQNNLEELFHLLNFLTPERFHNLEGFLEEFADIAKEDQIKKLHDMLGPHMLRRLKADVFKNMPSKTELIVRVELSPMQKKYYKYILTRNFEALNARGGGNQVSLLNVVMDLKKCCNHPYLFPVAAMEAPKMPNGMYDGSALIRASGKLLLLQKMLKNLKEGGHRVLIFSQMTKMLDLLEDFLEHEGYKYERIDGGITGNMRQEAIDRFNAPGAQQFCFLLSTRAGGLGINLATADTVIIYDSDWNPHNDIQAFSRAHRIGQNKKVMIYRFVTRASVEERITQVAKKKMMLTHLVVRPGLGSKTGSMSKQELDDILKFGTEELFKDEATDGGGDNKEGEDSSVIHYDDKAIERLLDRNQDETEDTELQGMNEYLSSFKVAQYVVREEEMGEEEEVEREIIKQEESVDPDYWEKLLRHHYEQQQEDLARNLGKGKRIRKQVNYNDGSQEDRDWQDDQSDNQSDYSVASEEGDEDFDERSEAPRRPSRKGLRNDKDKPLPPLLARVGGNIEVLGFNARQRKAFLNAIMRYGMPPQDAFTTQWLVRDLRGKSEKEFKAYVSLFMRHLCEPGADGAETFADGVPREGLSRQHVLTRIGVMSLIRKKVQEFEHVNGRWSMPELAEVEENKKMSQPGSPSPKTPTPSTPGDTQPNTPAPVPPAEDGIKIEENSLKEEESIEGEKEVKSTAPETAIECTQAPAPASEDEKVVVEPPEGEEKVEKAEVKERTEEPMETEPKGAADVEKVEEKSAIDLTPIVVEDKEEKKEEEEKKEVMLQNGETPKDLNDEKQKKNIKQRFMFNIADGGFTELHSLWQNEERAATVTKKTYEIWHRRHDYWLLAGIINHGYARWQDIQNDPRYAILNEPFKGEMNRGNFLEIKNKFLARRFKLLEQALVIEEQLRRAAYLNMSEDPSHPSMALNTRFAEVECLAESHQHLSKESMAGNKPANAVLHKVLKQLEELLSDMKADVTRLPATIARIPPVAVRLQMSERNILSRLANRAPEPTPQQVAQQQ
UniProt Q9UBB5: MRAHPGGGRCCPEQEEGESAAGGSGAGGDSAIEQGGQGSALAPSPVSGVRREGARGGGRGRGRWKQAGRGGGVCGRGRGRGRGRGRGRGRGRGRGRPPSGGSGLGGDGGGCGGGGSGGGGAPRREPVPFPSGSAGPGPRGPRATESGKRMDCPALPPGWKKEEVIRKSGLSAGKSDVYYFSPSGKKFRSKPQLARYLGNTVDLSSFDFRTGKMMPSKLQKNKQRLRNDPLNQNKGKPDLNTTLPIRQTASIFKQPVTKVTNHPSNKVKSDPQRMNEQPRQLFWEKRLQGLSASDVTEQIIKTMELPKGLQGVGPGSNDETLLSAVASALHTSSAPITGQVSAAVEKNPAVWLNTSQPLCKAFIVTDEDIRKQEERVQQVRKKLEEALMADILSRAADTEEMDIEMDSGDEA
UniProt Q13547: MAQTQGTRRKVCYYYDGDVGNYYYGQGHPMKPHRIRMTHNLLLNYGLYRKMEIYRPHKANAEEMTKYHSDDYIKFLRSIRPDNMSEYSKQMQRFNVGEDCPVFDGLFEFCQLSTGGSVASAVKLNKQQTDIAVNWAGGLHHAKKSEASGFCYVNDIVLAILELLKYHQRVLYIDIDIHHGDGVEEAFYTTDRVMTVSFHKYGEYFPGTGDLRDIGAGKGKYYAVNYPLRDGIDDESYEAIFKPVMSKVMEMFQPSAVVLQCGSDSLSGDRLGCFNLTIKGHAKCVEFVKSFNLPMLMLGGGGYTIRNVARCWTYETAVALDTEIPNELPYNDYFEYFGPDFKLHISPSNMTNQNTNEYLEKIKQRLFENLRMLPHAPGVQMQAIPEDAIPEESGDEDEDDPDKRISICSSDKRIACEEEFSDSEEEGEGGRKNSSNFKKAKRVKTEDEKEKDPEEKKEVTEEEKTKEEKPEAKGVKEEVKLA
UniProt Q8WXI9: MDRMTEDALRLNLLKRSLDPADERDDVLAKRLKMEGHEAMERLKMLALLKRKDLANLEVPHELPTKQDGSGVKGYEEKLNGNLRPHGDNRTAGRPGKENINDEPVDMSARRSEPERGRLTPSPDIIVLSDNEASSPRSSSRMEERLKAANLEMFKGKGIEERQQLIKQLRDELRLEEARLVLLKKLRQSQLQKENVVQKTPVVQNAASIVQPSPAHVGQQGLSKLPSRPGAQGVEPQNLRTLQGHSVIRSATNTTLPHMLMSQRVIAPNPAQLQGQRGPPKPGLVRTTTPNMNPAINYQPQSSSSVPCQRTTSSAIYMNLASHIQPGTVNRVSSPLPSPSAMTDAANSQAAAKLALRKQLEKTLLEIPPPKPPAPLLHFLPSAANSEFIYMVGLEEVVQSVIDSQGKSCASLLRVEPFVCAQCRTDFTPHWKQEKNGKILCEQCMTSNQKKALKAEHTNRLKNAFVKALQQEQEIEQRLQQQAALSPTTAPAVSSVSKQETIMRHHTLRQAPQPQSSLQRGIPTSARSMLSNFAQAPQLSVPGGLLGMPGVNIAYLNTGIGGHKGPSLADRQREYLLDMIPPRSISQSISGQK

Question: How did the binding [1] turn out when “HDAC2 (human) (from UniProt Q92769 1-488)” was run?
Answer: binds

Question: And the binding [2]?
Answer: binds

Question: “CHD3 (human) (from UniProt Q12873 1-2000)” was tested. Which binding [2] did it give?
Answer: binds

Question: “CHD4 (human) (from UniProt Q14839 1-1912)” was tested. Which binding [2] did it give?
Answer: binds

Question: How did the binding [2] turn out when “MBD2 (human) (from UniProt Q9UBB5 1-411)” was run?
Answer: binds

Question: Which binding [1] does the source give for “HDAC1 (human) (from UniProt Q13547 1-482)” here?
Answer: binds

Question: And the binding [2]?
Answer: binds

Question: “GATAD2B (human) (from UniProt Q8WXI9 1-593)” was tested. Which binding [2] did it give?
Answer: binds

B1: DOC1/CDK2AP1 (deleted in oral cancer 1/Cdk2-associated protein 1) (human) (protein, UniProt O14519 1-115)
chain: MSYKPNLAAHMPAAALNAAGSVHSPSTSMATSSQYRQLLSDYGPPSLGYTQGTGNSQVPQSKYAELLAIIEELGKEIRPTYAGSKSAMERLKRGIIHARGLVRECLAETERNARS
Question: B1 was tested. Which binding [2] did it give?
Answer: binds

B2: MBD3 (Xenopus laevis) (protein, UniProt Q9PUM9 1-282)
chain: MEKKRWECSALQGWKKEEVTRRSGLSAGKSDVYYYSPSGKKFRSKPQLARYLGNSMDLSTFDFRTGKMLMSKINKNRQRMRYDGLNQSKGKPDLNTALPVRQTASIFKQPVTKVTNHPTNKVKSDPQKAVDQPRQLFWEKKLSGLNAFDIAEELVKTMELPKGLQGVGPGCTDETLLSAIASALHTSTMPITGQLSAAVEKNPGVWLNTSQPLCKAFMVTDEDIRKQEELVQQVRKKLEEALMADMLAHVEEISKDGGAPLDKDIDDEEEDQDPREQEADDV
Question: For B2, which binding [3] is on record?
Answer: binds

Question: And the binding [4]?
Answer: binds

Question: And the binding [5]?
Answer: binds

Reference: PMC5848848
